T1: TFIIA-L-AID-3xFLAG (endogenously C-terminally tagged TFIIA-L) (D. melanogaster (endogenous in S2 cells)) (UniProt P52654)
T1 sequence: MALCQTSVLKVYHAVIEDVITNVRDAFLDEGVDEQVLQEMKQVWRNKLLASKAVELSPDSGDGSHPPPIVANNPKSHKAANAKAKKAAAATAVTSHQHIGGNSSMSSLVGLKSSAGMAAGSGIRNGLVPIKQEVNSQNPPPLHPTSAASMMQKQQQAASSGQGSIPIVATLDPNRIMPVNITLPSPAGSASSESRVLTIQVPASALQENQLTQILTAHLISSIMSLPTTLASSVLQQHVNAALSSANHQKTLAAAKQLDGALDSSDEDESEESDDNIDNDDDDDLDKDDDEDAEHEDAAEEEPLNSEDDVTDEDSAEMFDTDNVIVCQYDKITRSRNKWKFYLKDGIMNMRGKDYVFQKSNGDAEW

B1: nucleolar protein Nnp1 (protein, UniProt Q9VJZ7 1-687)
chain: MVTRKKPVKRNAEAAEIQVEQEEDASQPKVAKELMVVAQEVKIIRALACNDVVERNRQIRILRKWFKARAGSSFPFNEDDFMRIWKGLYYTMWMSDKPLVQEELAEKLAQMVDSFGGNTACSLAYFSAFMRTMCQEYFGIDQWRMDKFLMLTRRMVRYLLRFLKQNNWNADLIAAFNSSMQLSVMSEQPKSRGMTMHYLDVFFEELAKAANGEITAAQVNMFLRPFVTYIATQRDAKLVAQCRTRVLYHLMYQSDLGRQYSEKYNAWKQMGFPTASIDDIEKLDSGFDEEDDEVNAEEEQPRATSLDPRAGNVDVHMPELPLNADCVLDELQTQLRTNDFNSKRRKGLRKLIQIFETYQRGEFPLGVRTMPKVEGQTLSEMVEQKVAALDKMEDEVFATGRKLKKLNKSKRKRLLQSINFEEVDEHNYDEVISKALPPELQKKVNYNAKVRSSINNAWVVEEVKEAEPKSKKAKKEEPPQQNKDDQTKVKKKSQLKPKNDQSKPKIEDQPTLKAEKEEPAKRKKLDHSKTKEEQSKPKTDEQPKPTPKVEGQSKAKPTPKTKAAGVDDDAPTNGWDAPLEDGEQDIFVPSRKLQVKQANSKLPQSTPKQPARAEFATPQTGSGKHVRIVTKSNCIYPKSDYYRQLKLSPQVPYDANRLPGKSALKPHWIPGPIHPSYKAKRLFNDTL
B2: TATA-binding protein (TBP) (protein, UniProt P20227 1-353)
chain: MDQMLSPNFSIPSIGTPLHQMEADQQIVANPVYHPPAVSQPDSLMPAPGSSSVQHQQQQQQSDASGGSGLFGHEPSLPLAHKQMQSYQPSASYQQQQQQQQLQSQAPGGGGSTPQSMMQPQTPQSMMAHMMPMSERSVGGSGAGGGGDALSNIHQTMGPSTPMTPATPGSADPGIVPQLQNIVSTVNLCCKLDLKKIALHARNAEYNPKRFAAVIMRIREPRTTALIFSSGKMVCTGAKSEDDSRLAARKYARIIQKLGFPAKFLDFKIQNMVGSCDVKFPIRLEGLVLTHCNFSSYEPELFPGLIYRMVRPRIVLLIFVSGKVVLTGAKVRQEIYDAFDKIFPILKKFKKQS
B3: RNA helicase CG8611 (protein, UniProt Q86B47 1-975)
chain: MVENISLNVTVKSSARKNQQQSPALSVKKRAQKSQDFDFQFNVDKPKVKAIVVRRRAPPSKVEPTNSSVPNTTKSPTPSVSSSKSAISTLSASPKANASNDDLMFNVSPTKPPVKSVLGDDFMLNVTTKPVVAQKAKPKITRAERLGKKQRQGKPLTKLSEEQITRALKSNKKPKNPNQLPTPGDLFRAQLEEERRQKRREEGGGDQEASADEEDAKNNSGGGSPRVKPSSAVKESKKSSDIEDSGESGEESATSDEEPDESSAQSPGQEKEPKQTAKKPPKAEETSSTNRFRTKKIGLFDQSDVEALKQLGQRAVKPVKETIFTGSKISTLGLHPHAVKNLEDLLSIRELTSVQQKTIPEVLQGKDVLVRSQTGSGKTLAYALPLVELLQKQQPRIQRKDGVLALVIVPTRELVMQTYELIQKLVKPYTWIVPGSLLGGESRKSEKARLRKGINILIGTPGRLVDHLLHTASFKLTKLQFLILDEADRLLELGYERDVKQLVEAIDKQRAECEDKELPQLQRMLLSATLTSQVQQLAGLTLKNPLYIDNSDEAASAALKSKDGYQKETIEALLEVDDGLGEYQEDVTGVLSIPENLQLSYVVVPPKLRLVALSSLLAKEVDASPKQFKAIVFMSTTEMVNFHHDMLNEALTRRVLDEEDEQEKGDSDDDGDIPLLQGLRFFKLHGSMTQTERQGVFRGFRDCASCVLLATDVVGRGIDVPDIKLVVQYTPPQTTADFVHRVGRTARAGRKGRAVLFLTPSEAQFVRHLEKKRIRIQQGDMYAYLQTLLPKDDEARTVQEAASNLQHKFQTLLEDDRELHDKSCKAFVSWMKFYSTFPKELKPIFNVRIAHMGHFAKSFALKEAPSKFAAKHAAPKAAPPTNRLTYTERDPEKIQAQKRAKRRFTTTVSGEVRQLQQRDVGAQKPGAPPPKGGFIGGGVGRSSFMKSLGKSRALNMSEFDSGLPPEGAAKRRKQA

Results are given in words; binding and its absence hold for the method and conditions named. Binding seen in cells or lysates may run through a third protein. A yes stands for co-enrichment or nearness to the bait. Other partners may have been found. For some assays here: No binding means not detected with the bait. Where a sequence is shown, tags or fusion partners need not be part of it.

One test deals with T1, TFIIA-L-AID-3xFLAG (endogenously C-terminally tagged TFIIA-L) (D. melanogaster (endogenous in S2 cells)). The experiment in a line: affinity purification with mass spectrometry; anti-FLAG M2 magnetic beads with 1 mg nuclear lysate (nucleoplasm plus sonicated chromatin fraction) of the TFIIA-L-AID-3xFLAG S2 line, overnight at 4°C, washes with 150 mM NaCl IP lysis buffer; control: parental Tir1-expressing line; three replicates; label-free quantification.
Turning to B1, the binding result was “binds”.
With B2, the binding entry is recorded as “no binding”.
In the case of B3, the binding entry is listed as “binds”.

Another test shares this target. The test is described as above. This is another data set of the same source.
As for “Chromator (D. melanogaster (endogenous in S2 cells))”, the binding result is “binds”.
For the molecule “GFZF (D. melanogaster (endogenous in S2 cells))”, the binding result is listed as “binds”.
For “TFIIE (D. melanogaster (endogenous in S2 cells)) (complex)”, the binding entry was “binds”.
On the same count and under the same terms, to “DREF (D. melanogaster (endogenous in S2 cells))” belongs “binds”; to “TRF2 (TBP-related factor 2) (D. melanogaster (endogenous in S2 cells))”, “binds”.
